Measurements reported in PubChem BioAssay AID743121 (NCATS, 2013)

Test: 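Genes whose silencing strengthens cell killing by camptothecin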 (primary screen)
Cells: MDA-MB-231 cells, a human breast cancer line
Reagents: single siRNA against human genes, 20 nM siRNA (0.8 pmol per well)
Timing: 120 h (drug added 48 h after transfection, read 72 h later)
Treatment: camptothecin 20 nM (about EC30) for 72 h; vehicle 0.1% DMSO in parallel plates
Detection: 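CellTiter-Glo ATP signal, scaled to control siRNA as percent viability; sensitisation given as log2 of untreated divided by camptothecin-treated viability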
Direction: log2 vehicle/camptothecin viability: higher = stronger sensitisation to camptothecin; viability with camptothecin: higher = more viable cells
Units: viability with camptothecin in % of control
Active means: 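Each gene scored by redundant siRNA activity (RSA) over its individual siRNA ratios; a gene is called active at p < 0.001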
The deposit covers about 26,000 reagents; below is a part drawn at random. 167 of all reagents (0.63%) were called active. 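Calls are per gene from RSA p-values that are not deposited; an individual active-marked siRNA can sensitise only weakly.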 The numbers tell different reagents against one gene apart. Further read-outs or replicates are left out here.

Which result is listed for ABCA3 #1?
log2 vehicle/camptothecin viability: 0.079; viability with camptothecin: 96.7; activity call: inactive

With ABCA3 #2, what was measured?
log2 vehicle/camptothecin viability: -0.0501; viability with camptothecin: 81.4; activity call: inactive

Which result is listed for ABCA3 #3?
log2 vehicle/camptothecin viability: 0.178; viability with camptothecin: 85.7; activity call: inactive

For ABCA3 #4, what does the deposit list?
log2 vehicle/camptothecin viability: -0.0386; viability with camptothecin: 96.8; activity call: inactive

For RNF6 #1, what was measured?
log2 vehicle/camptothecin viability: -0.142; viability with camptothecin: 82.7; activity call: inactive

How did the screen score RNF6 #2?
log2 vehicle/camptothecin viability: -0.147; viability with camptothecin: 60.1; activity call: inactive

How did the screen score RNF6 #3?
log2 vehicle/camptothecin viability: -0.536; viability with camptothecin: 16.7; activity call: inactive

Just “viability with camptothecin” (2 entries from above):
RNF6 #1	82.7
RNF6 #2	60.1

Further results:
For MEN1 #1, what does the deposit list?
log2 vehicle/camptothecin viability: -0.458; viability with camptothecin: 118; activity call: inactive

What did the screen give for MEN1 #2?
log2 vehicle/camptothecin viability: -0.276; viability with camptothecin: 85.3; activity call: inactive

For MEN1 #3, what was measured?
log2 vehicle/camptothecin viability: -0.134; viability with camptothecin: 73.8; activity call: inactive

How did the screen score MEN1 #4?
log2 vehicle/camptothecin viability: 0.332; viability with camptothecin: 74; activity call: inactive

Which result is listed for ABCD4 #1?
log2 vehicle/camptothecin viability: -0.545; viability with camptothecin: 68.1; activity call: inactive

With ABCD4 #2, how do the results read?
log2 vehicle/camptothecin viability: -0.361; viability with camptothecin: 78.1; activity call: inactive

Which result is listed for ABCD4 #3?
log2 vehicle/camptothecin viability: 0.156; viability with camptothecin: 92.2; activity call: inactive

What did the screen give for ABCD4 #4?
log2 vehicle/camptothecin viability: 0.384; viability with camptothecin: 52.2; activity call: inactive
